These results are taken from paper PMC7886901.

By UniProt entry, the sequences of proteins in these tests, tags left out. Where a name states a change or a piece, a line headed by the entry shows the natural chain unless it says otherwise.
UniProt Q15326: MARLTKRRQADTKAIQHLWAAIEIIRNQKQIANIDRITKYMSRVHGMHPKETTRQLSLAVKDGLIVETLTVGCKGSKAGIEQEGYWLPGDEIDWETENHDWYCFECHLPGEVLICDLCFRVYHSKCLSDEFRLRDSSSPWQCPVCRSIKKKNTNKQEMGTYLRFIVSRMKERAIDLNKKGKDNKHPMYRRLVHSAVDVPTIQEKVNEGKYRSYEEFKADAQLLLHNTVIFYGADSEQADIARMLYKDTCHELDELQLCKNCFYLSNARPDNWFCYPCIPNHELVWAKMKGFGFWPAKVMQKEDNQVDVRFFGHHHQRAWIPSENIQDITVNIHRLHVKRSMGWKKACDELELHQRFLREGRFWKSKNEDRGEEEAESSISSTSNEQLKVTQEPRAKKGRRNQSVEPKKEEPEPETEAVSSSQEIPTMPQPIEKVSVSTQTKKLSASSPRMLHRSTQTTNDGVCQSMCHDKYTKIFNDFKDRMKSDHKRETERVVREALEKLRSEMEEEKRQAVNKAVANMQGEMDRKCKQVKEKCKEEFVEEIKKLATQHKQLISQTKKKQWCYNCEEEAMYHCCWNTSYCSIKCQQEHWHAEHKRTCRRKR

This experiment addresses ZM with its MBTD1 segment deleted (ΔM), 3XHA-3XFlag-tagged (human) (UniProt Q15326). As to the kind of experiment: co-IP; 3XHA-3XFlag-tagged ZM (WT or mutant) precipitated with anti-FLAG M2 magnetic beads from cleared lysates of HEK293T cells 48 h post-transfection, GFP-tagged Tip60 detected by western blot; IP175 buffer (175 mM NaCl, 0.1% NP40), Benzonase in the lysis, overnight at 4 °C. A general note: In western blotting, separated proteins are transferred to a membrane and probed.

Results are given in words; binding and its absence hold for the method and conditions named. In cells and extracts the contact can be indirect.

With “Human TIP60, GFP-tagged (from UniProt Q92993-1 1-513) (enzyme)”, the binding result is “no binding”.
